# Results are given in words; binding and its absence hold for the method and conditions named. Some binding calls cover weakened binding; strength is not graded here. Where a sequence is shown, tags or fusion partners need not be part of it.
# T1: YlmH with a C-terminal FLAG-tag (YlmH-FLAG) (B. subtilis) (UniProt P71020)
# T1 sequence: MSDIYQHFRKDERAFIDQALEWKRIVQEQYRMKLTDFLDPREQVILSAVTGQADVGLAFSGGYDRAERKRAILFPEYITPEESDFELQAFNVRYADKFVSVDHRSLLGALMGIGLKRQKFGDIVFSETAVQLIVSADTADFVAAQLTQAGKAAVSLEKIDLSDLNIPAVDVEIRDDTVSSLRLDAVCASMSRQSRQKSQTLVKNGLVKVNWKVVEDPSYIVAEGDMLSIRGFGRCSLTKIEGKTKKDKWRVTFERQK
# Biological target: T1, YlmH with a C-terminal FLAG-tag (YlmH-FLAG) (B. subtilis)
# Assay: cryo-EM structure; single particle cryo-EM of ex vivo YlmH-FLAG complexes eluted from anti-Flag beads; State 1 (YlmH, P-tRNA, 50S) and State 2 (YlmH, RqcH, A- and P-tRNA, 50S)
binder,measurement,value
"RqcH (protein, UniProt O34693 1-570) MSFDGMFTYGMTHELNEKIMGGRITKIHQPYKHDVIFHIRAKGKNQKLLLSAHPSYSRVHITAQAYENPSEPPMFCMLLRKHIEGGFIEKIEQAGLDRIMIFHIKSRNEIGDETVRKLYVEIMGRHSNIILTDAAENVIIDGLKHLSPSMNSYRTVLPGQDYKLPPAQDKISPLEASEDDILRHLSFQEGRLDKQIVDHFSGVSPLFAKEAVHRAGLANKVTLPKALLALFAEVKEHRFIPNITTVNGKEYFYLLELTHLKGEARRFDSLSELLDRFYFGKAERDRVKQQAQDLERFVVNERKKNANKIKKLEKTLEYSENAKEFQLYGELLTANLYMLKKGDKQAEVINYYDEESPTITIPLNPNKTPSENAQAYFTKYQKAKNSVAVVEEQIRLAQEEIEYFDQLIQQLSSASPRDISEIREELVEGKYLRPKQQKGQKKQKPHNPVLETYESTSGLTILVGKNNRQNEYLTTRVAARDDIWLHTKDIPGSHVVIRSSEPDEQTIMEAATIAAYFSKAKDSSSVPVDYTKIRHVKKPNGAKPGFVTYDSQHTVFVTPDADTVIKLKKS",binding,binds

# — article PMC11317155
